Paper doi:10.1101/2024.11.07.622398
These are yes or no findings as the source states them, for the method shown. Some results given as binding are weak or reduced against the parent protein; the word gives no strength.

Sequences of proteins named here, by UniProt entry; tags and fusion partners are left off.
UniProt O14933: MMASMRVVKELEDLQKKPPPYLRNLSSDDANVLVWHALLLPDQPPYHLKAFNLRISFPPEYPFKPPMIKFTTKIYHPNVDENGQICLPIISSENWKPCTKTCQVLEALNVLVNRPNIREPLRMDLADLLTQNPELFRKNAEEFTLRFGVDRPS

Molecular target: T1, mouse UBA7 (mouse) (UniProt Q9DBK7)
T1 sequence: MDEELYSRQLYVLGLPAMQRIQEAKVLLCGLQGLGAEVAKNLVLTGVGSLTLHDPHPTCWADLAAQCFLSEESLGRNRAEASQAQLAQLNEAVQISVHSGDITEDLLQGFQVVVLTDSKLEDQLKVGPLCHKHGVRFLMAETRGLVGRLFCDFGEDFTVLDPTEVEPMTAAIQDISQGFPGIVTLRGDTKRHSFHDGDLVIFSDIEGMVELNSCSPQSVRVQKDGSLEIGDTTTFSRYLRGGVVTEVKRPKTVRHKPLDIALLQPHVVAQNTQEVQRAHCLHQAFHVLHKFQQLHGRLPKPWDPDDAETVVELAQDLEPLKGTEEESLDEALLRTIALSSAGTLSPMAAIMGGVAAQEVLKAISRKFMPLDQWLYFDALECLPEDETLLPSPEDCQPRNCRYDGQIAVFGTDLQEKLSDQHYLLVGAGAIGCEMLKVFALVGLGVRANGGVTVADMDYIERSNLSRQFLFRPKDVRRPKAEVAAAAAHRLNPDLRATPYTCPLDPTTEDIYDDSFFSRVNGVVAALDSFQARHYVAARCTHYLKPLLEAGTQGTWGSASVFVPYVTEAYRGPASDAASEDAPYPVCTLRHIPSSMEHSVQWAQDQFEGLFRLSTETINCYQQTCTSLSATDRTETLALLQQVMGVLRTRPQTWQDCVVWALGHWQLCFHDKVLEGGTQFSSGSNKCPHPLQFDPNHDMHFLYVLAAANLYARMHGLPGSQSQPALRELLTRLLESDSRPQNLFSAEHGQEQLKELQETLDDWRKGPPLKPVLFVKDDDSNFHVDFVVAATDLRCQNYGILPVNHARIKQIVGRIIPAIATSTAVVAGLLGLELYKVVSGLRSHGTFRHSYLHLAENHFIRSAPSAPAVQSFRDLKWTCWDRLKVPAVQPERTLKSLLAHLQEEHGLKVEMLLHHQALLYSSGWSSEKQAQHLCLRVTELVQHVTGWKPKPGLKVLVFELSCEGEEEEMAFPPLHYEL
Test: disulfide complex formation on non-reducing SDS-PAGE

binding: binds weakly
Substance: human UBE2L6 (from UniProt O14933 1-153) (enzyme)
